This assay concerns the target substrate-binding domain of GRP78 (BiFC construct) (UniProt P11021). Briefly: split reporter; split Venus BiFC; HEK293 cells co-transfected with pEZY BiFC N-Venus and C-Venus plasmids, fixed 20-24 h after transfection, confocal microscopy.

The chains behind the UniProt entries cited, without tags or fusion partners. Where a name states a change or a piece, a line headed by the entry shows the natural chain unless it says otherwise. Residues count along the entry.
UniProt P11021: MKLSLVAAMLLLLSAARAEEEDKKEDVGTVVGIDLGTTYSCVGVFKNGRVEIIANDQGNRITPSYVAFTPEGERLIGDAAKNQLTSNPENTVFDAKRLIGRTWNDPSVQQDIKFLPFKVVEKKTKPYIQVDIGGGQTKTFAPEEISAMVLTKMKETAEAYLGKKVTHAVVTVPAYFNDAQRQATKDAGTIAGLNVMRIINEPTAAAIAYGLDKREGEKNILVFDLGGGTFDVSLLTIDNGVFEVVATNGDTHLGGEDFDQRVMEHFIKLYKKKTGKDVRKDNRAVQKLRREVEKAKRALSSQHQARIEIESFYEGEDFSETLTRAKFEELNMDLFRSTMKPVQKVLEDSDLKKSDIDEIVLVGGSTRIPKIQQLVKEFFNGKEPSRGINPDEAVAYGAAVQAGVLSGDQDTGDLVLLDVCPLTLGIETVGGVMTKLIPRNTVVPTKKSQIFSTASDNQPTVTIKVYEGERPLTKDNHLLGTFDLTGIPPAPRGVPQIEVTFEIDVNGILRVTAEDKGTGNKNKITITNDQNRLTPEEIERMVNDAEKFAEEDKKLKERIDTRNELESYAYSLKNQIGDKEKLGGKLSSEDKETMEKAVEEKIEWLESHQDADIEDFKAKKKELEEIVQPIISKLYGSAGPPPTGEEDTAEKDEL
UniProt Q49AH0, residues 25-187: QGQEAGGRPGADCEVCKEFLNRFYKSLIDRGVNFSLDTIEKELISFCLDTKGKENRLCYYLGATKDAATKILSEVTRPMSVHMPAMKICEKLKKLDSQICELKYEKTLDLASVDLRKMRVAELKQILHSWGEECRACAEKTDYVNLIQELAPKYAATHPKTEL

Results are given in words; binding and its absence hold for the method and conditions named. Binding seen in cells or lysates may run through a third protein. Binding calls can cover weak binding; strength is not graded here.

Take “pre-CV-CDNF (full-length CDNF with C-Venus, BiFC construct) (from UniProt Q49AH0 25-187)”: the binding result is reported as “binds”.

The record behind these values is PMC9408947.
